This is an account of results in patent US20060210554A1, “Detection of cholesterol ozonation products” (priority 2003, published 2006).

The data set in a line: Extraction, DNPH derivatization and HPLC-MS of atherosclerotic plaque extracts. Further details: species or system human.

The structures appear in SMILES notation.

As for `CC(C)CCC[C@@H](C)[C@H]1CCC2C3C(CC[C@@]21C)[C@@]1(C)CCC=C[C@@]1(O)[C@@H]3/C=N/Nc1ccc([N+](=O)[O-])cc1[N+](=O)[O-]` (stereo partly drawn) [7b, 2,4-Dinitrophenylhydrazone of 5β-hydroxy-B-norcholest-3-ene-6β-carboxaldehyde], the “7b in plaque extracts (trace amounts)” value (several plaque extracts) is recorded as less than 5 pmol/mg.

As for `CC(C)CCC[C@@H](C)[C@H]1CCC2C(C/C=N/Nc3ccc([N+](=O)[O-])cc3[N+](=O)[O-])C([C@@]3(C)CC[C@H](O)CC3=O)CC[C@@]21C` (stereo partly drawn) [4b, 2,4-Dinitrophenylhydrazone of 3β-hydroxy-5-oxo-5,6-secocholestan-6-al], the “mean amount of 4b in plaque, no PMA” value (n=14) stood at 18.7 ± 5.7 pmol/mg. Moreover, the “mean amount of 4b in plaque, PMA added” value (n=14, p<0.05) turned out to be 42.5 ± 13.6 pmol/mg.
